Test results: article PMC10524267

Assays:
[1] = biological target: T1, mouse CX3CR1 coupled to the enzyme donor component of β-gal, in CHO-K1 reporter cells (mouse) (UniProt Q9Z0D9); test: split reporter; β-gal enzyme fragment complementation (PathHunter) in mouse CX3CR1 CHO-K1 reporter cells; cells incubated with agonist CX3CL1 for 90 minutes at 37°C; luminescence
T1 sequence: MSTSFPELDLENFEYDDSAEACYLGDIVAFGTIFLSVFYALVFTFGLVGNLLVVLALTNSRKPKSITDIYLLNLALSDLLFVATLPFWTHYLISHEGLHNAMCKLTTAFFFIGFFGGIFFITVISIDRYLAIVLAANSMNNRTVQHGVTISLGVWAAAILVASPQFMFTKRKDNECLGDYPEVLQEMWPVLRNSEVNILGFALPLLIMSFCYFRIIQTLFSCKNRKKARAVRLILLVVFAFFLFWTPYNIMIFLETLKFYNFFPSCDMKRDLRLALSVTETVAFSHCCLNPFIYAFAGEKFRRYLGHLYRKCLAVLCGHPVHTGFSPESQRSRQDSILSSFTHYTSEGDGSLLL

[2] = biological target: T1, mouse CX3CR1 coupled to the enzyme donor component of β-gal, in CHO-K1 reporter cells (mouse); test: condition: only with the CX3CR1 monoclonal antibody in the absence of CX3CL1; split reporter; β-gal enzyme fragment complementation (PathHunter) in mouse CX3CR1 CHO-K1 reporter cells; cells incubated with anti-CX3CR1 mAb clone 1C11 for 90 minutes at 37°C in the absence of CX3CL1; luminescence

binding [1]: binds
binding [2]: no binding
Substance: β-arrestin coupled to the enzyme acceptor component of β-gal

Results are given in words; binding and its absence hold for the method and conditions named. In cells and extracts the contact can be indirect. For some assays here: A result given as binding can be weak or reduced; the word gives no strength.
